Drawing on patent US20170002081A1, this text covers binding for one molecule.

The chains behind the UniProt entries cited, without tags or fusion partners. Where a name states a change or a piece, a line headed by the entry shows the natural chain unless it says otherwise.
UniProt P07333: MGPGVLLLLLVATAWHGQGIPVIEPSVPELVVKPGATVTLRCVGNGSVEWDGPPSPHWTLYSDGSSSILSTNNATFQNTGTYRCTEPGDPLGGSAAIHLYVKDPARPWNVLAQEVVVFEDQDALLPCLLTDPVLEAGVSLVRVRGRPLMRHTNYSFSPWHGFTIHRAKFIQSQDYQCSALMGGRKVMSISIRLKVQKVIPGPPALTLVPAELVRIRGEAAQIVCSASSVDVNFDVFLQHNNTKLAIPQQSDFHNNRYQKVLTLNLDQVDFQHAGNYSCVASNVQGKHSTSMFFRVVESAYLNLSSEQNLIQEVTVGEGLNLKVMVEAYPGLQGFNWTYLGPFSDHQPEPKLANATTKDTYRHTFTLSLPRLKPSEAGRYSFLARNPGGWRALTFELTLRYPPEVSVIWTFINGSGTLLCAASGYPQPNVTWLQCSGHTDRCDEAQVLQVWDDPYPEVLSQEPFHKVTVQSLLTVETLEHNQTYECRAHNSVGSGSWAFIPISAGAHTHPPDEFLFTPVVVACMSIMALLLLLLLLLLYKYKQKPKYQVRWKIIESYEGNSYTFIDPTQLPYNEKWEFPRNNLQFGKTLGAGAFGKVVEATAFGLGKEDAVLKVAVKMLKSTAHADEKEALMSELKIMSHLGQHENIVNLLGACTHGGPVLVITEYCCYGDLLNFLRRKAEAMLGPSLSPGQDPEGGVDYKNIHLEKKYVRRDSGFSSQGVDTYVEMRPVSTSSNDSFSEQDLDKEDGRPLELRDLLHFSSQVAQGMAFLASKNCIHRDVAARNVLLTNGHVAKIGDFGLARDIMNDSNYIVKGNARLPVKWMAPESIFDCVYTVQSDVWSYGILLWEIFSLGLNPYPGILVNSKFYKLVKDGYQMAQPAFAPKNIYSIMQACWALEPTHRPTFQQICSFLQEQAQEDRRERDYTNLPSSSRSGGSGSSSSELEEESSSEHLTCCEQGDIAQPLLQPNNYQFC

For experiment [1], the target named is CSF-1R20-512-Fc (R&D Systems cat. 329-MR) (human) (UniProt P07333). Description: ELISA, 300 ng coated CSF-1R20-512-Fc, 500 ng/ml antibody. On the technique in general: ELISA stands for enzyme-linked immunosorbent assay.
Experiment [2] deals with human CSF-1R (form not stated) (human) (UniProt P07333). Description: quartz crystal microbalance (Attana).

Results are given in words; binding and its absence hold for the method and conditions named. Some entries that bind do so weakly or less than the wild type.

B1: H19K12 (antibody, V domains shown)
VH: EVQLVESGGGLVQPGGSLKLSCAASGFTFSDAWMDWVRQSPEMGLEWVAEIRSKANNHATFYAESVKGRFTISRDDSKSSVYLQMNSLRAEDTGIYYCTRVKVGFDNWGQGTTLTVSS
VL: DIQMTQSPSSLSASVGDRVTITCRASENIYSNLAWYQQKDGKSPQLLVHAATNLADGVPSRFSGSGSGTQYSLTISSLQPEDFGSYYCQHFWGTPRTFGGGTKLEIKR
For the molecule B1, the binding entry in experiment [1] and in experiment [2] was “binds” in each case.
